These are yes or no findings as the source states them, for the method shown. Some entries that bind do so weakly or less than the wild type.
What was measured:
[1] = target: KO_P121 (printed on the sheet as KI_P121); assay: flow cytometry, transfected 293F cells, column head printed KI_P121, taken as KO_P121
[2] = target: KO_A126 (printed on D00042 as KI_A126); assay: flow cytometry, transfected 293F cells, column head printed KI_A126, taken as KO_A126 [FIGURE 32B con't]
[3] = target: KO_D137 (printed on the sheet as KI_D137); assay: flow cytometry, transfected 293F cells, column head printed KI_D137, taken as KO_D137 [FIGURE 32B con't]

Measured: binding

B1: 9B12 (antibody, mouse IgG1, V domains shown)
VH: EVQLQESGPSLVKPSQTLSLTCSVTGDSFTSGYWNWIRKFPGNRLEYMGYISYNGITYHNPSLKSRISITRDTSKNHYYLQLNSVTTEDTATYFCARYRYDYDGGHAMDYWGQGTLVTVSS
VL: DIQMTQTTSSLSASLGDRVTISCRASQDISNYLNWYQQKPDGTVKLLIYYTSKLHSGVPSRFSGSGSRTDYSLTITDLDQEDIATYFCQQGSALPWTFGQGTKVEIKR
binds: all assays above

From patent publication US20160137740A1
